The results in this text go back to patent US20260124298A1.

Amino acid sequences for entries named in this document (tags omitted). A change or cut given only in a name is not applied to a line headed by its entry.
UniProt Q6UXN8: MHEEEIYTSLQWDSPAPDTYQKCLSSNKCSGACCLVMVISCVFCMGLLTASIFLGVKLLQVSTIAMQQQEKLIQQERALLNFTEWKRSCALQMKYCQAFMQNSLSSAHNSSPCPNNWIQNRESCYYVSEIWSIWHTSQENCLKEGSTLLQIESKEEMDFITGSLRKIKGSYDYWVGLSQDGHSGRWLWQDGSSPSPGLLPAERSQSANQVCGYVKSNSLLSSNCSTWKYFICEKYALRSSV

The chains are these.
T1: mouse Clec9A (mouse) (UniProt Q8BRU4)
T1 sequence (looked up): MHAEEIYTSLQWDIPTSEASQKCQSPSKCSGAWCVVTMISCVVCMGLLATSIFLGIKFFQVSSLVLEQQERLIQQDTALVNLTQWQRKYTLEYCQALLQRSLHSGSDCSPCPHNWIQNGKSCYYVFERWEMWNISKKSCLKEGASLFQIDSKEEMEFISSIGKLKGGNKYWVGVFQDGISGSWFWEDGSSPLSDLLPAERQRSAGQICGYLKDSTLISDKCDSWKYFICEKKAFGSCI

B1: R1CHCL82 (VHH)
VHH: QVQLVESGGESVQAGGSLRLSCAASGRTISNYDMAWSRQAPGKEREFVARISGSGDRTDYADSVKGRFTISRDNAKNTVYLQMNSLKPEDTAIYNCQTQIFGSPNFSGQGTQVTVSS
B2: R1CHCL34 (VHH)
VHH: B1 VHH with Q1D, E10G, N95Y, T98I, I100D, G102R, N105D, S107W, G108S
B3: R2CHCL10 (VHH)
VHH: B1 VHH with E10G, N95Y, T98I, I100D, N105S
B4: R1CHCL50 (VHH)
VHH: QVQLVESGGGLVHPGGSLRLSCAASGSFSSINVMGWYRQAPGKERELVARITNLGLPNYADSVTGRFTISRDNAKNTVYLQMNSLKPEDTAVYYCYLVALKAEYWGQGTQVTVSS
B5: R2CHCL87 (VHH)
VHH: B4 VHH with H13Q, F28I, T64E, N73K, A74D, K75E, Q81E, S84T, A99G
B6: R2CHCL8 (VHH)
VHH: B4 VHH with F28I, S62W, V63L, T64K, G65D, K101S
B7: R2CHCL22 (VHH)
VHH: DVQLVESGGGLVQAGGSLRLSCAISGLTFSRYHMGWYRQAPGREREFVAQITWSDGTTYYPGSVKGRFTISRDNARNTVYLQIDNLKPEDTAIYYCDARKVGGPDYWGQGTQVTVSS
B8: R2CHCL24 (VHH)
VHH: QVQLVESGGGLVQPGGSLRLSCAASGSSDSINAMGWYRQAPGKERELVAAITSGGRVVYSDSVKGRGTISRDNAKNTVYLQIASLKPEDTAVYYCNVKTKSAVLFGGMDYWGKGTQVTVSS
B9: R2CHCL25 (VHH)
VHH: QVQLVESGGGLVQAGGSLRLSCATSGLTLSSYYIAWYRQAPGREREFVAQIRWSDDSTYYPGSVKGRFTISRDNARNTVYLRMDNLKPEDTARYYCDARKVGGPDYWGQGTQVTVSS
B10: R2CHCL3 (VHH)
VHH: QVQLVESGGGLVQAGDSLRLSCAASGRTFTTSLMQWHRQAPGKEREFVASITWSTGNTHYADSVKGRFTISRDNARNTVYLQMNSLKPEDTAIYTCRVLAIHGDYWGQGTQVTVSS
B11: R1CHCL16 (VHH)
VHH: DVQLVESGGGLVQPGGSLRLSCAASGSIFSLNAMGWYRQAPGKERELVAHITSDGRIVYADPVKGRFTISRVDGKNMVTLQMNSLKPEDTAVYYCNAKHYASNYWGQGTQVTVSS
B12: R2CHCL94 (VHH)
VHH: QVQLVESGGGLVQPGGSLRLSCAASGFTFSGYVMTWVRQAPGKGLEWVAHIGSGGGHATYTDSVEGRFTISRDNAKNTLYLQMNNLKAEDTAVYYCEFLGRRGQGTQVTVSS
B13: R2CHCL49 (VHH)
VHH: B7 VHH with L11S, R31N, G56A, T57S, T58I, P61A, A75V, R76K, T78I
B14: R2CHCL27 (VHH)
VHH: QVQLVESGGGLVQPGGSLRLSCAASGFTFSGYLMSWVRQAPGKGLEWVATIGSGGGITSYADSVKGRFTISRDNAKNTLYLQMNNLKHEDTAVYYCETVIKRGQGTQVTVSS
B15: R2CHCL13 (VHH)
VHH: B12 VHH with T35S, H50S, H57Y, A58P, T59S, Q82L, N84D, A88P, E89D, F98M

Where a chain is given by its changes, count along the chain named. These are yes or no findings as the source states them, for the method shown. Some results given as binding are weak or reduced against the parent protein; the word gives no strength.

The target of the first assay is human Clec9A (human) (UniProt Q6UXN8). Put plainly: FIG. 5 legend, statement on the groups; paragraph 573 says this clone was not tested in FACS.
As to B1, the binding result was “binds”.

The target is the same in another assay. The experiment in a line: FACS, purified His-tagged VHH (serial dilution from 1000 ng/ml), HEK293T cells transfected with human Clec9A, FITC anti-His. (In general: Flow cytometry measures light scatter and fluorescence of single cells or particles in a stream.)
For B2, the binding entry is given as “binds”.
B3: the binding result is reported as “binds”.
Still for that read-out and setting: for B1 the value was “binds”; for B4, “binds”; for B5, “binds”.
For B6, the binding entry is recorded as “binds”.
The same measure, in the same setting: for B7 the value was “binds”.
For the molecule B8, the binding entry was “binds”.
Still for that read-out and setting: for B9 the value was “binds”; for B10, “binds”.
On the same count and under the same terms, for B11 the value was “binds”; for B12, “binds”.

Another assay has the same target. The experiment in a line: FACS, crude periplasmic extract, CHO-K1 cells transfected with human Clec9A; parental CHO-K1 as negative control.
Take B2: the binding result is listed as “binds”.
On the same count and under the same terms, then B3, with “binds”.
Same read-out and setting: then B4, with “binds”; and B5, with “binds”; and B13, with “binds”.
On the same count and under the same terms, then B8, with “binds”.
In the case of B9, the binding entry is “binds”.
On the same count and under the same terms, for B14 the value was “binds”; for B10, “binds”.
For B11, the binding result is “binds”.
Same read-out and setting: then B15, with “binds”.

The target of a further assay is T1, mouse Clec9A (mouse). The experiment in a line: FIG. 5 legend, statement on the groups (FACS of paragraph 573).
For the molecule B2, the binding entry was “binds”.
The same measure, in the same setting: then B3, with “binds”.

A further assay has as its target human Clec9A (human) (UniProt Q6UXN8). Described as above.
For B2, the binding entry was “binds”.
Turning to B3, the binding entry is on record as “binds”.

For a further assay, the target named is T1, mouse Clec9A (mouse). The experiment in a line: FACS, crude periplasmic extract, CHO-K1 cells transfected with mouse Clec9A.
With B2, the binding result is recorded as “binds”.
Still for that read-out and setting: for B3 the value was “binds”.

The target of the next assay is human Clec9A (human) (UniProt Q6UXN8). Put plainly: filing's conclusion from FACS of group representatives; this clone is not in the list of those tested.
With B1, the binding entry is on record as “binds”.
B6: the binding result is “binds”.
On the same count and under the same terms, for B7 the value was “binds”.
The same measure, in the same setting: then B12, with “binds”.
